Common to all, as to experiment: affinity purification with mass spectrometry; FLAG-tagged human bait stably expressed in MEL cells induced 72 h with 1.5% DMSO; cytosolic fraction pre-cleared, anti-FLAG agarose overnight at 4°C, buffers (50 mM Tris-HCl pH 7.5, 1 mM EDTA, 150 mM NaCl) without detergent, elution with FLAG peptide, MudPIT MS; empty vector as control
The target in assay [1] is T1, FLAG-PBGS (human porphobilinogen synthase, amino terminal FLAG) (human) (UniProt P13716).
T1 sequence: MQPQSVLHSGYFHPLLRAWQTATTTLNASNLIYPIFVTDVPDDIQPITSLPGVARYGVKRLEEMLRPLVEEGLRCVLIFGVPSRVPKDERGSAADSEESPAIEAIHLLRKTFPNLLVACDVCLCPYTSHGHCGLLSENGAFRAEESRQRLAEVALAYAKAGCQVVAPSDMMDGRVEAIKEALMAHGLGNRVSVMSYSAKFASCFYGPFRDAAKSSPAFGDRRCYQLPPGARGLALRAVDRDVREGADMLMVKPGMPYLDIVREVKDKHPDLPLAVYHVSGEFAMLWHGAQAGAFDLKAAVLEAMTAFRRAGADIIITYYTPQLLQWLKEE

Assay [2] addresses T2, FLAG-UROD (human uroporphyrinogen III decarboxylase, amino terminal FLAG) (human) (UniProt P06132).
T2 sequence: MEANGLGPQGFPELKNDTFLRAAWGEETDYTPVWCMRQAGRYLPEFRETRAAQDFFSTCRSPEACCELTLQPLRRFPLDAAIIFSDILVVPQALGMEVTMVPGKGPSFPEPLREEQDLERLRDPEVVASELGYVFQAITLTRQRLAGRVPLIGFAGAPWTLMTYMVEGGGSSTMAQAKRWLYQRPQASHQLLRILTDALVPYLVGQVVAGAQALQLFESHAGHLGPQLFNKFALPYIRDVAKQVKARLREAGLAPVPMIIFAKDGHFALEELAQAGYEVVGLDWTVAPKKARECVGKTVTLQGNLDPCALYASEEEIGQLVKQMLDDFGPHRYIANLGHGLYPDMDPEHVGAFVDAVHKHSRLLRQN

For assay [3], the target named is T3, FLAG-HMBS (human hydroxymethylbilane synthase, amino terminal FLAG) (human) (UniProt P08397).
T3 sequence: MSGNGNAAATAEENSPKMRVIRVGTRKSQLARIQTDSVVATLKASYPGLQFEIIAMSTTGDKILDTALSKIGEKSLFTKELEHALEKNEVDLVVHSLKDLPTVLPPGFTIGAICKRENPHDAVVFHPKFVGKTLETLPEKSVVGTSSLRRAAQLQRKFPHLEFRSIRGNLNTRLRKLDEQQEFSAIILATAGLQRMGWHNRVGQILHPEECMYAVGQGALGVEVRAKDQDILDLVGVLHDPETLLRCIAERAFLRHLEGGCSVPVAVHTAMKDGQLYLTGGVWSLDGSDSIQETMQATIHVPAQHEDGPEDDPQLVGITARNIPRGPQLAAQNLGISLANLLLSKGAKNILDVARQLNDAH

For assay [4], the target named is T4, FLAG-UROS (human uroporphyrinogen III synthase, amino terminal FLAG) (human) (UniProt P10746).
T4 sequence: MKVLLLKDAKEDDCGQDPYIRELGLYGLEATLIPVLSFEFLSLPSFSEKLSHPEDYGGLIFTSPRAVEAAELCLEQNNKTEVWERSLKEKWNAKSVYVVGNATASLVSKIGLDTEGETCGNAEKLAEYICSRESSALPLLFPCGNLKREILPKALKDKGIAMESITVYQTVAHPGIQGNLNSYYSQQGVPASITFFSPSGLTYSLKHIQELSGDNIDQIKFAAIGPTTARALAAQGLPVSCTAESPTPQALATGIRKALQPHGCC

Results are given in words; binding and its absence hold for the method and conditions named. Binding seen in cells or lysates may run through a third protein. Here binding means that the protein was enriched with, or labelled near, the bait; the list need not be complete. No binding means not detected with the bait. Sequences can lack the tags named with a protein.

B1: mouse uroporphyrinogen III decarboxylase (enzyme, UniProt P70697 1-367)
chain: MEANGFGLQNFPELKNDTFLRAAWGEETDYTPVWCMRQAGRYLPEFRETRAAQDFFSTCRSPEACCELTLQPLRRFPLDAAIIFSDILVVPQALGMEVTMVPGKGPSFPEPLREERDLERLRDPAAAASELGYVFQAITLTRQRLAGRVPLIGFAGAPWTLMTYMVEGGSSSTMAQAKRWLYQRPQASHKLLGILTDVLVPYLIGQVAAGAQALQLFESHAGHLGTELFSKFALPYIRDVAKRVKAGLQKAGLAPVPMIIFAKDGHFALEELAQAGYEVVGLDWTVAPKKARERVGKAVTLQGNLDPCALYASEEEIGRLVQQMLDDFGPQRYIANLGHGLYPDMDPERVGAFVDAVHKHSRLLRQN
B1: the binding result in assay [1] was “no binding”; in assay [2] it was “binds”; in assay [3], “no binding”; in assay [4], “no binding”.

B2: mouse porphobilinogen synthase (enzyme, UniProt P10518 1-330)
chain: MHHQSVLHSGYFHPLLRSWQTAASTVSASNLIYPIFVTDVPDDVQPIASLPGVARYGVNQLEEMLRPLVEAGLRCVLIFGVPSRVPKDEQGSAADSEDSPTIEAVRLLRKTFPSLLVACDVCLCPYTSHGHCGLLSENGAFLAEESRQRLAEVALAYAKAGCQVVAPSDMMDGRVEAIKAALLKHGLGNRVSVMSYSAKFASCFYGPFRDAAQSSPAFGDRRCYQLPPGARGLALRAVARDIQEGADMLMVKPGLPYLDMVREVKDKHPELPLAVYQVSGEFAMLWHGAQAGAFDLRTAVLETMTAFRRAGADIIITYFAPQLLKWLKEE
Regarding B2, the binding result in assay [1] was “binds”; in assay [2], “no binding”; in assay [3], “no binding”; in assay [4] it was “no binding”.

B3: mouse hydroxymethylbilane synthase (enzyme, UniProt P22907 1-361)
chain: MSGNGGAATTAEENGSKMRVIRVGTRKSQLARIQTDTVVAMLKALYPGIQFEIIAMSTTGDKILDTALSKIGEKSLFTKELENALEKNEVDLVVHSLKDVPTILPPGFTIGAICKRENPCDAVVFHPKFIGKTLETLPEKSAVGTSSLRRVAQLQRKFPHLEFKSIRGNLNTRLRKLDELQEFSAIVLAVAGLQRMGWQNRVGQILHPEECMYAVGQGALAVEVRAKDQDILDLVSVLHDPETLLRCIAERAFLRHLEGGCSVPVAVHTVMKDGQLYLTGGVWSLDGSDSMQETMQATIQVPVQQEDGPEDDPQLVGITARNIPRGAQLAAENLGISLASLLLNKGAKNILDVARQLNDVR
B3: the binding entry in assay [1] is on record as “no binding”; in assay [2], “no binding”; in assay [3], “binds”; in assay [4] it was “no binding”.

B4: mouse uroporphyrinogen III synthase (enzyme, UniProt P51163 1-265)
chain: MKVLLLKDAKEDDSGLDPYIQELRLCGLEATLIPVLSFEFMSLPSLSEKLSHPEGFGGLIFTSPRAVEAVKLCLEKDNKTEAWEKSLKDRWNAKSVYVVGSATASLVNKIGLDAEGAGSGNAEKLAEYICSKPSSELPLLFPCGTIKGDTLPKMLKDKGIPMESMHVYQTVPHPGIQGSLKSYYEDQGIPASITFFSPSGLKYSLEYIQALSGSSFDQIKFIAIGPSTTRAMAAKGLPVSCTAESPTPQALAAGIRNVLKPNHCC
Regarding B4, the binding entry in assay [1], in assay [2], in assay [3] and in assay [4] was “no binding” each time.

For the origin of these results see PMC4545792.
